PubChem BioAssay AID540256 (National Center for Advancing Translational Sciences (NCATS), 2011)
The whole screen tested about 300,000 compounds, of which about 3,700 (1.2%) were called active. Inconclusive results, whose numbers are uncertain, are shown with a selection of clear calls. Calls follow the shape of the full dose curve; tested in HEK293 cells. A potency beside an inconclusive call is a rough fit, not a confirmed value.

Assay: qHTS for Inhibitors of binding or entry into cells for Lassa Virus; also: nearly all actives have a fitted effect of over 50% in size
Details: Lassa virus pseudotype entry inhibition, cell reporter; activity change, negative = inhibition: at 37.9 µM (top of the series) unless noted
% is scaled to controls: 0 for no effect and ±100 for the full control effect; potency is read from the fitted curve at half-maximal effect.

Row | Structure (SMILES) | activity change, negative = inhibition | Potency
1 | COc1ccccc1NC(=O)c1ccccc1C(=O)Nc1ccccc1OC | inactive: -26.7% | –
2 | CCOC(=O)C1=C(CS(=O)(=O)c2ccc(F)cc2)NC(=O)NC1c1ccc(OCC)c(OC)c1 (centres undefined) | inactive: 0.278% [at 46.1 µM] | –
3 | O=C(Nc1cccc(C(F)(F)F)c1)c1cc[n+]([O-])cc1 | inactive: 4.36% | –
4 | COc1ccc(/C=N/NC(=O)c2c(C)nc3ccccn23)cc1[N+](=O)[O-] | inactive: -0.347% | –
5 | C=CCNc1nc(Cl)nc(Nc2ccc([N+](=O)[O-])cc2)n1 | inactive: -10.2% | –
6 | COc1ccc(OCCSc2nc3ccccc3n2CC(=O)O)cc1 | inactive: 20.1% | –
7 | O=C(NCCC1=CCCCC1)c1cnsn1 | inactive: 0.431% | –
8 | O=C(Nc1nnc(-c2ccccc2Cl)o1)c1cccnc1 | – | inconclusive: 0.0517 µM [inhibitor, full curve, poor fit]
9 | COC(=O)NNC(=O)c1ccc(C(C)(C)C)cc1 | – | inconclusive: 17.8 µM [activator, single point]
10 | COc1ncnc2sc(-c3ccccc3)cc12 | inactive: 5.17% | –
11 | COC(=O)c1ccc(Oc2nc(N3CCCCC3)nc(N3CCOCC3)n2)cc1 | – | inconclusive: 3.66 µM [inhibitor, partial curve, poor fit]
12 | O=[N+]([O-])c1ccc(C=NNc2ccc(S(=O)(=O)O)cc2)cc1 | inactive: 0.0406% [at 46.1 µM] | –
13 | CCCc1nc2ccccc2n2c(-c3cccc(C)c3)c3c(=O)n(C)c(=O)n(C)c3c12 | – | inconclusive: 1.26 µM [inhibitor, full curve]
14 | Cn1c(=O)c2c(ncn2CC(COCc2ccc(Cl)cc2)OCc2ccc(Cl)cc2)n(C)c1=O (centres undefined) | – | inconclusive: 35.5 µM [inhibitor, single point]
15 | COc1ccccc1N(C)S(=O)(=O)c1ccc(C(=O)N2CCCc3ccccc32)cc1 | – | inconclusive: 10 µM [inhibitor, partial curve, poor fit]
16 | Cn1c(SCC(=O)NCc2cccs2)nnc1-c1ccco1 | – | inconclusive: 4.61 µM [activator, full curve, poor fit]
17 | Cn1c(SCC(=O)Nc2ccc(Cl)cc2)nnc1C1CC1 | – | inconclusive: 35.5 µM [inhibitor, single point]
18 | CCOC(=O)c1c(C)oc2nc(C)nc(NCc3ccccc3OCC)c12 | – | inconclusive: 8.91 µM [activator, partial curve]
19 | Cc1cc(C)cc(Nc2sc(C(=O)c3ccccc3)c(N)c2S(=O)(=O)c2ccccc2)c1 | – | inconclusive: 10 µM [inhibitor, partial curve, poor fit]
20 | CCOC(=O)C(C(=O)OCC)C(C(=O)OCC)N1CCOCC1 (centres undefined) | inactive: 11.3% | –
21 | COc1cc2c(c(OC)c1OC)C(=O)C(=Cc1ccccc1)O2 | – | inconclusive: 35.5 µM [inhibitor, single point]
22 | Cc1ccc(NC(=O)COC(=O)CNC(=O)C2CCCCC2)cc1S(=O)(=O)N(C)C | inactive: -0.201% [at 46.1 µM] | –

Row | Structure (SMILES) | activity change, negative = inhibition | Potency
23 | COc1ccc(NC2Oc3cc4c(cc3C(c3cc(OC)c(OC)c(OC)c3)C2C)OCO4)cc1 (centres undefined) | – | inconclusive: 2.51 µM [inhibitor, partial curve, poor fit]
24 | COc1ccc(C(CNc2ccc(C(F)(F)F)cn2)N(C)C)cc1OC (centres undefined) | – | inconclusive: 35.5 µM [inhibitor, single point]
25 | COc1ccccc1-c1cc(C(F)(F)F)n2ncc(S(=O)(=O)c3ccccc3)c2n1 | – | inconclusive: 11.6 µM [inhibitor, partial curve, poor fit]
26 | CC1Sc2ccc(S(=O)(=O)N(C)Cc3ccccc3)cc2NC1=O (centres undefined) | – | inconclusive: 22.4 µM [inhibitor, partial curve, poor fit]
27 | Cc1nccc(-c2cccc(NC(=O)Nc3ccc(Cl)cc3)c2)n1 | – | inconclusive: 0.631 µM [inhibitor, partial curve, poor fit]
28 | CC(NC(=O)c1ccc2c(=O)n3c(nc2c1)CCCCC3)c1ccccc1 (centres undefined) | – | inconclusive: 14.1 µM [inhibitor, single point]
29 | Cc1c(C(=O)NC(C)C)c(-c2ccccc2)nn1-c1ccccc1 | inactive: 0.731% | –
30 | O=C(NCc1ccccc1)c1cccc(S(=O)(=O)NCc2ccccc2)c1 | – | inconclusive: 7.08 µM [inhibitor, partial curve, poor fit]
31 | COc1ccc(CCNC(=O)CSc2nnc(-c3ccccc3)c3ccccc23)cc1OC | inactive: -6.79% | –
32 | COc1ccc(N(CC(=O)N/N=C/c2ccc(OC3CSC3)cc2)S(=O)(=O)c2ccccc2)cc1 | – | inconclusive: 6.31 µM [inhibitor, partial curve, poor fit]
33 | CCOc1ccc(S(=O)(=O)N(CC(=O)N2CCc3ccccc32)Cc2ccco2)cc1 | – | inconclusive: 35.5 µM [inhibitor, single point]
34 | Cc1nn(Cc2ccc(F)cc2)c2sc(C(=O)Nc3nccs3)cc12 | inactive: 6.78% | –
35 | CCC(=O)OCCNc1cc(Sc2nccn2C)c2nonc2c1[N+](=O)[O-] | – | inconclusive: 35.5 µM [inhibitor, single point]
36 | C=CCNc1cc(C(F)(F)F)nc(-c2ccccn2)n1 | – | inconclusive: 29.1 µM [inhibitor, single point]
37 | Cc1cccc(C(=O)Nc2ccc(C(=O)N/N=C/c3ccc4c(c3)OCO4)cc2)c1 | – | inconclusive: 7.08 µM [inhibitor, partial curve, poor fit]
38 | O=C(CS(=O)(=O)c1cccc2nsnc12)NCc1ccc(Cl)cc1 | – | inconclusive: 3.55 µM [activator, single point]
39 | Cc1ccc(C(=O)N2c3ccccc3N(Cc3ccccc3)C(=O)C2(C)C)cc1 | – | inconclusive: 29.1 µM [inhibitor, single point]
40 | Cc1nc2nc(SCc3ccc(F)cc3Cl)nn2c(C)c1Cc1ccccc1 | inactive: 1.81% [at 46.1 µM] | –
41 | CSc1ccc(C(=O)C2CCCN(C(=O)c3nn(C)c(=O)c4ccccc34)C2)cc1 (centres undefined) | – | inconclusive: 22.4 µM [inhibitor, single point]
42 | COC(=O)C1=C(C)NC(=O)C1(Nc1ccc(Cl)cn1)C(F)(F)F (centres undefined) | – | inconclusive: 0.116 µM [inhibitor, full curve, poor fit]
43 | CC(OC(=O)c1ccc(NC(N)=O)cc1)C(=O)Nc1ccc2c(c1)OCCO2 (centres undefined) | inactive: 3.94% [at 46.1 µM] | –
44 | O=C(COc1ccc(F)cc1)Nc1ccccc1C(=O)OCc1cc(=O)n2nc(C3CC3)sc2n1 | inactive: 4.79% [at 46.1 µM] | –

Some values from the entries so far:
Value for COc1ccc(N(CC(=O)N/N=C/c2ccc(OC3CSC3)cc2)S(=O)(=O)c2ccccc2)cc1 under Potency: inconclusive: 6.31 µM [inhibitor, partial curve, poor fit]
Value for O=C(COc1ccc(F)cc1)Nc1ccccc1C(=O)OCc1cc(=O)n2nc(C3CC3)sc2n1 under activity change, negative = inhibition: inactive: 4.79% [at 46.1 µM]
Value for Cc1nn(Cc2ccc(F)cc2)c2sc(C(=O)Nc3nccs3)cc12 under activity change, negative = inhibition: inactive: 6.78%
